In doi:10.1101/2025.11.22.689956:
No constants are given. Whether binding was seen depends on the method and setting. A result given as binding can be weak or reduced; the word gives no strength. Tags and fused reporters may be left off the sequences shown. For part of these data: In cells and extracts the contact can be indirect.

Key:
[1] = biological target: ACTPK1 fused to the GAL4 DNA-binding domain (rice); assay: two-hybrid
[2] = biological target: ACTPK1-nYFP (rice); assay: split reporter
[3] = biological target: Flag-tagged ACTPK1 (pCAMBIA1300-35S-Flag-ACTPK1) (rice); assay: co-IP

B1: MPK3 fused to the GAL4 activation domain (enzyme, UniProt Q10N20 1-369)
chain: MDGAPVAEFRPTMTHGGRYLLYDIFGNKFEVTNKYQPPIMPIGRGAYGIVCSVMNFETREMVAIKKIANAFNNDMDAKRTLREIKLLRHLDHENIIGIRDVIPPPIPQAFNDVYIATELMDTDLHHIIRSNQELSEEHCQYFLYQILRGLKYIHSANVIHRDLKPSNLLLNANCDLKICDFGLARPSSESDMMTEYVVTRWYRAPELLLNSTDYSAAIDVWSVGCIFMELINRQPLFPGRDHMHQMRLITEVIGTPTDDELGFIRNEDARKYMRHLPQYPRRTFASMFPRVQPAALDLIERMLTFNPLQRITVEEALDHPYLERLHDIADEPICLEPFSFDFEQKALNEDQMKQLIFNEAIEMNPNIRY
- binding [1]: binds

B2: MPK3-cYFP (enzyme, UniProt Q10N20 1-369)
chain: B1 chain
- binding [2]: binds

B3: GFP-tagged MPK3 (MPK3-pGWB5) (enzyme, UniProt Q10N20 1-369)
chain: B1 chain
- binding [3]: binds
